Assay results as given in patent US20180355035A1 (STCUBE, published 2018).
No constants are given. Whether binding was seen depends on the method and setting. Some entries that bind do so weakly or less than the wild type. For part of these data: Where a sequence is shown, tags or fusion partners need not be part of it.

Chains of the proteins cited; added tags and fusions are not shown. Lines headed by an entry give the natural chain unless they say otherwise; changes in a name come on top.
UniProt Q13410: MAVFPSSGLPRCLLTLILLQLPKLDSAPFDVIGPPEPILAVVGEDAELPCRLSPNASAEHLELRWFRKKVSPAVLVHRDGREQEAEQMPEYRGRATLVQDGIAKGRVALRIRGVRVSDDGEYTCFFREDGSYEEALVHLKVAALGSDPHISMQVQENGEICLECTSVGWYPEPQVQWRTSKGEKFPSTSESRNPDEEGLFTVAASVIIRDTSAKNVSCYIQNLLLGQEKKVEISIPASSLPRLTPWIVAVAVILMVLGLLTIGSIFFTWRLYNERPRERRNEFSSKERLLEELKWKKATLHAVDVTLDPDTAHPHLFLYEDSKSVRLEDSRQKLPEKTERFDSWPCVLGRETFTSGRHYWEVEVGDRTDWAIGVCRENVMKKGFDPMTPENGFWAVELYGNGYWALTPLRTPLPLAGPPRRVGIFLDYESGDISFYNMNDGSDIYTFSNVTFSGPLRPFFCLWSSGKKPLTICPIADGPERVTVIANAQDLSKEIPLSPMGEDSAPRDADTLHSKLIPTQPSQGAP

Legend:
[1] = molecular target: T1, BTN1A1 in human prostate cancer samples (human) (UniProt Q13410); assay: OPAL multiplexed immunofluorescence on prostate tumor samples
T1 sequence: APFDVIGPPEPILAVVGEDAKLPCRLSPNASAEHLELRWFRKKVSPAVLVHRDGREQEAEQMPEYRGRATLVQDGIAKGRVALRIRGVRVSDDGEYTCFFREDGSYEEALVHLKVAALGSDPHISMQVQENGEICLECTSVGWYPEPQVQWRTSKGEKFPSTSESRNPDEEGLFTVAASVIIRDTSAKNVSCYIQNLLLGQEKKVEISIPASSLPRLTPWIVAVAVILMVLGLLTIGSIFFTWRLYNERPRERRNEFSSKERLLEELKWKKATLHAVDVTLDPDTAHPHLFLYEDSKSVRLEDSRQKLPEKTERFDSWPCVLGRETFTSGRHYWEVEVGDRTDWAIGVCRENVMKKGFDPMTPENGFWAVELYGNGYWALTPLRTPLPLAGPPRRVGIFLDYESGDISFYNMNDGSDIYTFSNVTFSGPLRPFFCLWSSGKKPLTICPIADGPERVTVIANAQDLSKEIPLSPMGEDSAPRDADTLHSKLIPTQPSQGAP

[2] = molecular target: T1, BTN1A1 in human prostate cancer samples (human); assay: IHC on formalin-fixed paraffin-embedded prostate tumor sections, 3 and 5 µg/ml, DAB
[3] = molecular target: T2, human BTN1A1 extracellular domain tagged with 6xHis (human) (UniProt Q13410); assay: dot blot, glycosylated vs PNGase F treated BTN1A1-ECD-His on solid phase
T2 sequence (chain, N-glycosylated (removed by PNGase F in the deglycosylated control)): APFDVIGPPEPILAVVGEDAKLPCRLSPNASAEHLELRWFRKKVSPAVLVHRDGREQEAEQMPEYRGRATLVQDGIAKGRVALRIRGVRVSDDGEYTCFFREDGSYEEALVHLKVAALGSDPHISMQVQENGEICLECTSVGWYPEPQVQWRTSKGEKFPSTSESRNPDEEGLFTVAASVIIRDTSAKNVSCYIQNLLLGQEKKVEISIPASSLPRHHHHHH

binding [1]: binds
binding [2]: binds
binding [3]: binds
B1: mouse monoclonal anti-human BTN1A1 antibody STC810 (antibody, V domains shown)
VH: EVQLQQSGPELVKPGASVKISCKASGYTFTHYNMDWVKQSHGKSLEWIGYIYPSNGGTGYNQKFKSRATLTVDKSSSTAYMELHSLTSEDSAVYYCARGAYHYGSSYAYWYFDVWGAGTTVTVSS
VL: DIQMTQTTSSLSASLGDRVTISCSASQDISNYLNWYQQKPDETVKLLISYTSSLHSGVPSRFSGSGSGTDYSLTISNLAPEDIATYYCQQSSKLPFTFGSGTELEIKR
notes: also called STC838; STC810 MAb
